# Results published in the supplement of paper PMC3334620.
# Over roughly 33,000 sequences, “E-score (-0.5 to 0.5)” has its median near -0.0014; the highest 2% begin near 0.25. The list shows a part of the results.
# Biological target: T1, Cad1 (UniProt P24813)
# T1 sequence: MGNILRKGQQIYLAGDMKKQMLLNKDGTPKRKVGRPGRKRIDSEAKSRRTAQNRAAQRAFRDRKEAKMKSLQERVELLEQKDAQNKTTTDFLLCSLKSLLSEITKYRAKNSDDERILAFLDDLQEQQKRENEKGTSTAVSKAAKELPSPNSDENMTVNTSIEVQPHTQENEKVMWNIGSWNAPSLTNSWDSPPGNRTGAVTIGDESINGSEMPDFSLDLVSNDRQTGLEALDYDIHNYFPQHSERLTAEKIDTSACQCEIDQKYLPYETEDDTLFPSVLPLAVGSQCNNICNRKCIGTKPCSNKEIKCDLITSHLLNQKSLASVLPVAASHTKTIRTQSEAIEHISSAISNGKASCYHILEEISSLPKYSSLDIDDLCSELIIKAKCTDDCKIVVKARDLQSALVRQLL
# Experiment: PBM E-score (8-mer binding enrichment) (E-score (-0.5 to 0.5)); higher = stronger / more preferred TF binding
# Conditions: protein concentration: 100 nM; construct: GST-full length
# Summary of the method: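 Each ungapped eight-base word and its reverse complement, pooled, received an E-score from the Universal PBM Analysis Suite. Underlying scans, normalised with masliner, recorded fluorescent anti-GST bound to GST-tagged yeast transcription factors. These were applied at about 100-200 nM to universal all-10-mer Agilent arrays double-stranded by primer extension.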
row,Sequence,PBM E-score
1,CTATAGGC,-0.0641
2,CTTGAAAG,-0.0947
3,AGCTCAAG,-0.168
4,ACACTATG,-0.0993
5,ACTTGTAT,0.0376
6,GGGCAACC,0.0184
7,GTGTCTAA,0.0993
8,ACGACTTG,-0.14
9,ACGCAAAG,-0.045
10,AAAGTCCT,-0.105
11,AGACGAAG,-0.164
12,AACGTGGA,-0.0358
13,CGACGATA,0.02
14,AAATGCAA,-0.00746
15,CATGAAGA,-0.0229
16,AAGGGAGT,-0.298
17,GTCCTATA,0.0155
18,AAAGGGCA,-0.132
19,ATAAGACA,0.0499
20,TGGGAACA,-0.0827
21,CAACTTCA,-0.0119
22,AGTTCTGA,0.152
23,CGCGTATC,0.154
24,ATTCCGGG,0.122
25,AGGTAATC,0.142

row,Sequence,PBM E-score
1,AGCCCACG,0.0442
2,ACAACAGC,0.0732
3,CTGCTTAC,0.276
4,GAACCCGA,0.0447
5,CAGAACGC,-0.0323
6,GAATGAAC,0.0799
7,AGGTAACA,0.104
8,GCAATCCC,-0.0824
9,AAGCAGCG,0.104
10,ACAGTCGA,-0.25
11,AAAAGAAA,0.101
12,GCACTACC,0.063
13,CTGTTCTC,0.00998
14,CGCGAACC,0.0513
15,ATTCCTGC,0.0949
16,CGACAAAG,0.131
17,AAGTTTTC,0.178
18,GCAAACAC,-0.0216
19,GAGTCTCC,0.0534
20,CCCTCGGC,-0.197
21,CAAATCTA,0.124
22,CAGCCCCA,-0.0238
23,CCTATGAA,-0.1
24,GGATACAA,0.0493
25,GCAAGGTA,-0.0924

row,Sequence,PBM E-score
1,CAAAGGCG,-0.07
2,ATTGTGAA,0.0555
3,TGGGGACA,-0.214
4,AGACATTA,0.0651
5,GAGTCTCA,-0.119
6,CCTTAAAC,-0.032
7,CGGACCGA,0.134
8,CATTATTA,0.241
9,ACCTCGAG,0.22
10,CACCGCGG,0.215
11,ACCTCACA,-0.0106
12,AATACGAC,-0.1
13,CGAGAGAG,-0.0145
14,AACATTCA,0.0564
15,GGCGGCCC,-0.172
16,CCATTAGG,-0.337
17,GTCGTTGA,-0.0827
18,CGAACGAG,-0.03
19,GGCCATAA,0.0255
20,CCGGATAC,-0.0652
21,AATACATC,0.157
22,AGCGGCTC,-0.0559
23,AATCTGGA,-0.00706
24,CTTTCTAA,0.154
25,ATACCCCA,0.0157

# Copied from the list:
# Entry for ACCTCGAG under PBM E-score: 0.22
# Entry for ACCTCACA under PBM E-score: -0.0106

# More records

row,Sequence,PBM E-score
1,ACTTACTA,0.184
2,CGACTCAG,-0.0921
3,AGGATCAA,0.0592
4,ATAATCTG,-0.109
5,AAATCCCT,-0.0454
6,ACCCCACC,0.00584
7,CAAGATCA,-0.122
8,AGCTATCC,-0.222
9,TAGTGTGA,-0.166
10,AGTCGCGA,0.285
11,AAGTTACA,0.0493
12,ACAAATGG,0.122
13,CTGTACTA,0.16
14,CTACACGC,-0.0937
15,AGAAGACC,-0.16
16,GATTAAAA,0.214
17,CACATGGC,-0.00544
18,CATACCAC,0.0561
19,CCGCGTGC,0.141
20,AGGTTCAT,-0.14
21,CGTAACTC,-0.138
22,ACACACCC,0.041
23,TGGATAAA,0.092
24,ACGTATCC,-0.16
25,CGTTGTCC,0.122

row,Sequence,PBM E-score
1,CCCTGGAA,-0.278
2,AGCACGGA,0.0459
3,TCACAAAA,0.253
4,CTTGTGTC,0.073
5,CCCGGGAC,-0.1
6,CTATGGCC,0.00017
7,CCTGCCGA,-0.0102
8,TCCATAGA,-0.0153
9,GTACACTA,0.0288
10,ATGCCAAG,0.00268
11,CCAACTCG,0.0519
12,ACGGGTTA,-0.231
13,CCCGAGGC,-0.068
14,CTCTAGTA,-0.129
15,AATTCTTC,0.0185
16,GCTCGTGA,-0.154
17,ACCACGAT,0.133
18,AGTAGTCC,-0.162
19,AAGTGGCG,0.0989
20,CATTCTGG,-0.0809
21,CTGAAGGA,-0.0928
22,CTCTAACA,0.0177
23,CATTACAC,0.0518
24,GGTTCTAA,0.122
25,CGATATGC,0.194

row,Sequence,PBM E-score
1,GTCCACCA,-0.106
2,CAGTTTGG,-0.0251
3,GCGTGAGC,0.182
4,CCTCTTTC,-0.206
5,CATACACA,-0.13
6,AATTAAAA,0.129
7,ATTCCCGA,-0.241
8,ACGTTTAC,0.0362
9,CGAATGGA,-0.0243
10,TGTTTTAA,0.182
11,AGACTCAA,0.0131
12,CTAAAACA,-0.0517
13,CCTCGGTC,-0.248
14,CATTAGAG,-0.0966
15,CTTAGAAC,0.11
16,AATGAATG,0.117
17,GGGGCGGA,-0.173
18,TACACTCA,0.0522
19,CATCCGGA,0.0199
20,ACCCACCA,-0.0533
21,ATGTCGAA,-0.00122
22,GCAATGCA,-0.00309
23,AGAGCCTG,0.049
24,AGTCAGAC,0.104
25,GAAAATGC,0.0805

# Reprinted at random: two entries already listed, in no set order.
row,Sequence,PBM E-score
15,GGCGGCCC,-0.172
5,CCCGGGAC,-0.1

# Some of the entries so far, bar-delimited.
row | Sequence | PBM E-score
9 | CGAATGGA | -0.0243
10 | TGTTTTAA | 0.182
11 | AGACTCAA | 0.0131
12 | CTAAAACA | -0.0517
13 | CCTCGGTC | -0.248
14 | CATTAGAG | -0.0966

# Going on with the list.

row,Sequence,PBM E-score
1,CCTATCAG,-0.176
2,CAGATACC,-0.0463
3,AGCCGATC,0.0404
4,ATCAACGG,0.162
5,ACTGGTTG,0.139
6,GCCGGGCA,-0.146
7,AGAGATAG,-0.0187
8,ATACTTGA,-0.195
9,TCTAAGAA,0.246
10,ACAATTAC,0.119
11,AGACCGCG,0.165
12,ACTCGTAG,-0.103
13,GCCAGCGC,-0.021
14,AACCCCTA,-0.184
15,CAGACTGC,-0.0137
16,GTGAATGA,0.0303
17,ACTTTGGG,-0.0732
18,AAGGTACG,-0.12
19,ATCCACCG,-0.0297
20,CCCTTGAA,-0.0267
21,ACCGCTAT,-0.0161
22,TAAGGAGA,-0.0313
